Tests used:
[1] = general procedure: solution-phase peptide synthesis; DMT-MM
peptide synthesis = settings: whole synthesis

With Boc-Leu-MeLeu-Thr(OBn)-MeGly-OAllyl as the substance, how does the step yield ([1]; coupling step) read?
Its step yield is 93% yield.

What about the “crude HPLC purity” value ([1]; coupling step, LC A %) of the same substance?
Its value is 95.36%.

With “Boc-MeAla-MePhe-Leu-MeLeu-Thr(OBn)-MeGly-OH” as the substance, how does the step yield ([1]; late stage modification step) read?
Its step yield is 86%.

And the “crude HPLC purity” value ([1]; late stage modification step, LC area %)?
The value was 92.03%.

What does the source list for Boc-MeIle-Ala-MePhe-MeVal-Asp(OCTC)-pip?
crude HPLC purity ([1]; whole synthesis, LC area %): 96.471%; crude yield (peptide synthesis): 69%

Source: patent publication US12331072 (dated 2025)
